Measurements reported in PubChem BioAssay AID602196 (INSERM, 2012).

- Aim: 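Knock-downs that protect lung cancer cells from cisplatin or sensitise them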
- Cells: human A549 lung cancer cells
- Reagents: siRNA pair against human genes
- Time to read-out: 48 h transfection before cisplatin; time from cisplatin to read-out not stated
- Challenge: cisplatin at a dose killing half of control-siRNA cells; exact dose and duration not given
- Read-out: 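Cisplatin cell death as a shift from the 50% death seen with control siRNA; siRNAs toxic or growth-blocking alone scored 0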
- Reading the numbers: two-siRNA summed score (-2 to +2): higher = both siRNAs protect from cisplatin killing; -2 means both sensitise; mean protection from cisplatin (shift in death): higher = protection from cisplatin killing
- Rule for the call: 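siRNAs harmful alone (LDH or WST-1) get 0; others get +1 for less and -1 for more cisplatin killing; genes are active when the two siRNAs give the same sign, summing to ±2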
- Calls: active = both siRNAs shift cisplatin killing the same way; inactive = no consistent shift, or siRNA harmful alone
This is an unselected part of about 23,000 reagents tested. 455 of all reagents (2%) count as active. 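Active includes both protection and sensitisation; some change values fall well beyond the stated -50 to +50 range.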 Not all columns of the deposit are shown. Reagent sequences are not shown. Not stated in the record: the amount of reagent.

target	two-siRNA summed score (-2 to +2)	mean protection from cisplatin (shift in death) (%)	activity call
C2orf42 (chromosome 2 open reading frame 42)	0	-11.2	inactive
KRTAP10-8 (keratin associated protein 10-8)	0	11.6	inactive
LOC344741	0	7.9	inactive
LOC402637	0	12.7	inactive
DERL1 (derlin 1)	0	9.5	inactive
SIK3 (SIK family kinase 3)	0	-26.7	inactive
RALGPS2 (Ral GEF with PH domain and SH3 binding motif 2)	0	5.6	inactive
TRIP13 (thyroid hormone receptor interactor 13)	0	-1.5	inactive
ID2 (inhibitor of DNA binding 2)	1	6.9	inactive
TIMELESS (timeless circadian regulator)	-1	0	inactive
ACOX1 (acyl-CoA oxidase 1)	0	-13.2	inactive

4 entries from above, limited to “two-siRNA summed score (-2 to +2)”.
SIK3 (SIK family kinase 3) = 0
RALGPS2 (Ral GEF with PH domain and SH3 binding motif 2) = 0
TRIP13 (thyroid hormone receptor interactor 13) = 0
ID2 (inhibitor of DNA binding 2) = 1

More reagents follow:
target	two-siRNA summed score (-2 to +2)	mean protection from cisplatin (shift in death) (%)	activity call
TAAR2 (trace amine associated receptor 2)	0	0	inactive
PPP1R15A (protein phosphatase 1 regulatory subunit 15A)	1	4.1	inactive
PRSS38 (serine protease 38)	1	2.1	inactive
AQP11 (aquaporin 11)	1	0.4	inactive
PNLIPRP3 (pancreatic lipase related protein 3)	0	9.8	inactive
TMEM139 (transmembrane protein 139)	1	11.7	inactive
ZNF169 (zinc finger protein 169)	1	17.7	inactive
IFNLR1 (interferon lambda receptor 1)	0	6.9	inactive
LOC391211	0	-1.6	inactive
SRPRB (SRP receptor subunit beta)	-1	-6.4	inactive
FAM168A (family with sequence similarity 168 member A)	0	15.1	inactive
USP17L2 (ubiquitin specific peptidase 17 like family member 2)	0	9.6	inactive
